From publication doi:10.1101/2020.02.05.936518
These are yes or no findings as the source states them, for the method shown. In cells and extracts the contact can be indirect. Some results given as binding are weak or reduced against the parent protein; the word gives no strength.

Amino acid sequences for entries named in this document (tags omitted). Residues count along the entry.
UniProt Q9QY81, residues 27-1886: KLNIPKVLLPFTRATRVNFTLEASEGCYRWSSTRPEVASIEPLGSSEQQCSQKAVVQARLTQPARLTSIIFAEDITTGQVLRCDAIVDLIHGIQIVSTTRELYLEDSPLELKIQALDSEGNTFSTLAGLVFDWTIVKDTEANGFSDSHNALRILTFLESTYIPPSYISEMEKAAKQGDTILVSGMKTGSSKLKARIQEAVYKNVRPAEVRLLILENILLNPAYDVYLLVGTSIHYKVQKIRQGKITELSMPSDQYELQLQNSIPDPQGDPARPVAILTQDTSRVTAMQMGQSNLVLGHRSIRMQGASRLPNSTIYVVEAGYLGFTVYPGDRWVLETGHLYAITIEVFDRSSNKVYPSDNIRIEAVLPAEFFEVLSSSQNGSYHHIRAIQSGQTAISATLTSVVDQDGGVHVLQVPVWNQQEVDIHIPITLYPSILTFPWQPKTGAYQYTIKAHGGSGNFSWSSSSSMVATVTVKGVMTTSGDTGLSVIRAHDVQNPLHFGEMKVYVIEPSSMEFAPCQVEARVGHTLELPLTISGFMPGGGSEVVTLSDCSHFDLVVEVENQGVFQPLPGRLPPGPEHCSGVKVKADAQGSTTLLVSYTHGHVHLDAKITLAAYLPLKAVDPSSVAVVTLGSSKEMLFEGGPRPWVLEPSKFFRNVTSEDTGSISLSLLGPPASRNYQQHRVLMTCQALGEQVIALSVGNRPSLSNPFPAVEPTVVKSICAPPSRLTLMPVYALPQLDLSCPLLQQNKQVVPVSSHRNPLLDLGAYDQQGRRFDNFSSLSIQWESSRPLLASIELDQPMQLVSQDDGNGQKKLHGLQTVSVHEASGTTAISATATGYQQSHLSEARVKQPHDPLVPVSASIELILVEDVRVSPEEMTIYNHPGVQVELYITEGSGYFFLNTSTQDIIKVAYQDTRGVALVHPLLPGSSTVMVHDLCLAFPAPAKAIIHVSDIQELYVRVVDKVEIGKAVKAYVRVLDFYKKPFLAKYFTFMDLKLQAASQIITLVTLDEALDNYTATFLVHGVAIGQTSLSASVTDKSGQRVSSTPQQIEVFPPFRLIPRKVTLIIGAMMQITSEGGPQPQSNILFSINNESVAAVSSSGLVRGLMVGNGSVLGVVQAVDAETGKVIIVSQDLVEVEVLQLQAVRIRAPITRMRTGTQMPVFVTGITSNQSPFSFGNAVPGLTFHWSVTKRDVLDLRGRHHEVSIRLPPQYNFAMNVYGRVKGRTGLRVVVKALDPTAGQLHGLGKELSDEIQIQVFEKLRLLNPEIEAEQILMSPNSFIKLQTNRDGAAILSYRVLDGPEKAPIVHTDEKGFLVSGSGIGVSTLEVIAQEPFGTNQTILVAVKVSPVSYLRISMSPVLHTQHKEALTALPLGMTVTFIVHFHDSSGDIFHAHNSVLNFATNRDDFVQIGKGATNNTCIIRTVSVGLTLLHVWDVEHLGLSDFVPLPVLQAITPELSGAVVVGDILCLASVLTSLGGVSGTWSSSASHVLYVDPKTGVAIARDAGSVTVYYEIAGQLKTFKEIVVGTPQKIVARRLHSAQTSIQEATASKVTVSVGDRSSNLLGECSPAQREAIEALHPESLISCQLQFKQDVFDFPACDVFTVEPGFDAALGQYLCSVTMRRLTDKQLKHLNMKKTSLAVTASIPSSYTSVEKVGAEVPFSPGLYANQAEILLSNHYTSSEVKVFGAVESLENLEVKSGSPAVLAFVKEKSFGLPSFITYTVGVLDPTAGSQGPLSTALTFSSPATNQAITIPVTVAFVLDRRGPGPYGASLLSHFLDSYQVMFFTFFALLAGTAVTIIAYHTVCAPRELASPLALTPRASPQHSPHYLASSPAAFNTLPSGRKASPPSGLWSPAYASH

Columns and labels:
[1] = biological target: EZH2, endogenous in 4T1 cells (mouse (endogenous in 4T1)), Q61188; assay: co-IP; settings: remark: other sources report otherwise
[2] = biological target: Myc-tagged NUP210 (NUP210-Myc), stably overexpressed in 4T1 cells (mouse) (UniProt Q9QY81); assay: co-IP

B1: SUZ12, endogenous in 4T1 cells, Q80U70 1-741 (protein)
chain: MAPQKHGGGGGGGSGPSAGSGGGGFGGSAAAVAAAASGGKSGGGGCGGGGSYSASSSSAAAAAAAAGAAVLPVKKPKMEHVQADHELFLQAFEKPTQIYRFLRTRNLIAPIFLHRTLTYMSHRNSRTSIKRKTFKVDDMLSKVEKMKGEQESHSLSAHLQLTFTGFFHKNDKPSQNSENEQNSVTLEVLLVKVCHKKRKDVSCPIRQVPTGKKQVPLNPDLNQTKPGNFPSLAVSSNEFEPSNSHMVKSYSLLFRVTRPGRREFNGMINGETNENIDVSEELPARRKRNREDGEKTFVAQMTVFDKNRRLQLLDGEYEVAMQEMEECPISKKRATWETILDGKRLPPFETFSQGPTLQFTLRWTGETNDKSTAPVAKPLATRNSESLHQENKPGSVKPAQTIAVKETLTTELQTRKEKDNSNESRQKLRIFYQFLYNNNTRQQTEARDDLHCPWCTLNCRKLYSLLKHLKLCHSRFIFNYVYHPKGARIDVSINECYDGSYAGNPQDIHRQPGFAFSRNGPVKRTPITHILVCRPKRTKASMSEFLESEDGEVEQQRTYSSGHNRLYFHSDTCLPLRPQEMEVDSEDEKDPEWLREKTITQIEEFSDVNEGEKEVMKLWNLHVMKHGFIADNQMNHACMLFVENYGQKIIKKNLCRNFMLHLVSMHDFNLISIMSIDKAVTKLREMQQKLEKGESATPSNEEIAEEQNGTANGFSETNSKEKALETDGVSGVPKQSKKQKL
**Q.** Which binding [1] does the source give for B1 here?
**A.** binds

B2: SUN2, endogenous in 4T1 cells (protein, UniProt Q8BJS4 1-731)
chain: MSRRSQRLTRYSQDDNDGGSSSSGASSVAGSQGTVFKDSPLRTLKRKSSNMKHLSPAPQLGPSSDSHTSYYSESVVRESYIGSPRAVSLARSALLDDHLHSEPYWSGDLRGRRRRGTGGSESSKANGLTAESKASEDFFGSSSGYSSEDDLAGYTDSDQHSSGSRLRSAASRAGSFVWTLVTFPGRLFGLLYWWIGTTWYRLTTAASLLDVFVLTRSRHFSLNLKSFLWFLLLLLLLTGLTYGAWHFYPLGLQTLQPAVVSWWAAKESRKQPEVWESRDASQHFQAEQRVLSRVHSLERRLEALAADFSSNWQKEAIRLERLELRQGAAGHGGGSSLSHEDALSLLEGLVSRREATLKEDLRRDTVAHIQEELATLRAEHHQDSEDLFKKIVQASQESEARVQQLKTEWKSMTQEAFQESSVKELGRLEAQLASLRQELAALTLKQNSVADEVGLLPQKIQAARADVESQFPDWIRQFLLGDRGARSGLLQRDEMHAQLQELENKILTKMAEMQGKSAREAAASLGQILQKEGIVGVTEEQVHRIVKQALQRYSEDRIGMVDYALESGGASVISTRCSETYETKTALLSLFGIPLWYHSQSPRVILQPDVHPGNCWAFQGPQGFAVVRLSARIRPTAVTLEHVPKALSPNSTISSAPKDFAIFGFDEDLQQEGTLLGTFAYDQDGEPIQTFYFQASKMATYQVVELRILTNWGHPEYTCIYRFRVHGEPAH
**Q.** How did the binding [2] turn out when B2 was run?
**A.** binds

B3: SUN1, endogenous in 4T1 cells (protein, UniProt Q9D666 1-913)
chain: MDFSRLHTYTPPQCVPENTGYTYALSSSYSSDALDFETEHKLEPVFDSPRMSRRSLRLVTTASYSSGDSQAIDSHISTSRATPAKGRETRTVKQRRSASKPAFSINHLSGKGLSSSTSHDSSCSLRSATVLRHPVLDESLIREQTKVDHFWGLDDDGDLKGGNKAATQGNGELAAEVASSNGYTCRDCRMLSARTDALTAHSAIHGTTSRVYSRDRTLKPRGVSFYLDRTLWLAKSTSSSFASFIVQLFQVVLMKLNFETYKLKGYESRAYESQSYETKSHESEAHLGHCGRMTAGELSRVDGESLCDDCKGKKHLEIHTATHSQLPQPHRVAGAMGRLCIYTGDLLVQALRRTRAAGWSVAEAVWSVLWLAVSAPGKAASGTFWWLGSGWYQFVTLISWLNVFLLTRCLRNICKVFVLLLPLLLLLGAGVSLWGQGNFFSLLPVLNWTAMQPTQRVDDSKGMHRPGPLPPSPPPKVDHKASQWPQESDMGQKVASLSAQCHNHDERLAELTVLLQKLQIRVDQVDDGREGLSLWVKNVVGQHLQEMGTIEPPDAKTDFMTFHHDHEVRLSNLEDVLRKLTEKSEAIQKELEETKLKAGSRDEEQPLLDRVQHLELELNLLKSQLSDWQHLKTSCEQAGARIQETVQLMFSEDQQGGSLEWLLEKLSSRFVSKDELQVLLHDLELKLLQNITHHITVTGQAPTSEAIVSAVNQAGISGITEAQAHIIVNNALKLYSQDKTGMVDFALESGGGSILSTRCSETYETKTALLSLFGVPLWYFSQSPRVVIQPDIYPGNCWAFKGSQGYLVVRLSMKIYPTTFTMEHIPKTLSPTGNISSAPKDFAVYGLETEYQEEGQPLGRFTYDQEGDSLQMFHTLERPDQAFQIVELRVLSNWGHPEYTCLYRFRVHGEPIQ
**Q.** B3 was tested. Which binding [2] did it give?
**A.** no binding
